SMILES strings stand for the structures.

The subject of the assay is MCF7. As to the kind of experiment: Antiproliferative activity against human MCF7 cells assessed as reduction in cell growth incubated for 24 hrs by MTT assay. The assay is classed as functional, cell-based. Particulars: MCF7, 24 h. In short, it runs like this:
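MTT assay. Cells seeded at 4 × 10^4 per well and incubated overnight. Treated 24 h; DMSO served as negative control and doxorubicin as positive control. MTT dye 0.5 mg/mL added for 2 h at 37 °C, formazan dissolved in DMSO, absorbance read at 570 nm. Single-concentration screen at 10; dose-dependent dilutions gave IC50. WI-38 fibroblasts grown in DMEM with 10% FBS and 1% penicillin/streptomycin. Triplicate means ± S.E.M.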
(In general: Formazan colour is commonly taken as a measure of viable cells.)

Turning to `COc1cccc2c1C(=O)c1c(O)c3c(c(O)c1C2=O)C[C@@](O)(C(=O)CO)C[C@@H]3O[C@H]1C[C@H](N)[C@H](O)[C@H](C)O1` [DOXORUBICIN], the IC50 (in general, the midpoint of a concentration-inhibition curve) came to 920 nM.

The values above are taken from ChEMBL document CHEMBL4814002, “Synthesis, biological evaluation, and docking studies of novel pyrrolo[2,3-b]pyridine derivatives as both ectonucleotide pyrophosphatase/phosphodiesterase inhibitors and antiproliferative agents” (Eur J Med Chem, 2021).
